Laboratory results: PubChem BioAssay AID1508597 (Cure First, 2020)
Here is a random part of about 2,100 reagents. 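Calls flag viability under 80% in either arm, not effects specific to rucaparib; the reference for percent is not stated.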 A number with no mark means an inactive call. No sequences are given here. Not stated in the record: the 100% reference.

- Purpose: 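Genes whose silencing sensitises or protects ovarian cancer cells against rucaparib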 (primary screen)
- Cells: human ovarian carcinoma lines grown from tumours: OCI-P5x (papillary serous) and OCI-C5x (clear cell)
- Knock-down reagent: siRNA pool against human genes, 1.25 pmol siRNA per well
- Duration: 72 h or 96 h, depending on the cell culture
- Conditions: rucaparib 20 µM (about IC30) or vehicle, present until read-out
- Measured: 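ATP luminescence measured at 72 or 96 h according to the culture, then normalised and expressed as percent viability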
- Scale: viability, normalised: higher = more viable cells remaining
- Hit rule: 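a well counts as a hit if its normalised viability is under 80 percent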
- Calls: active = viability under 80%; inactive = viability 80% or more

| target | PubChem SID | rucaparib or vehicle | cell line | technical replicate | viability, normalised (%) |
| --- | --- | --- | --- | --- | --- |
| RBL1 | SID405527235 | Rucaparib | OCI-C5x (clear cell) | 1 | 57.7 (active) |
| RBL1 | SID405527235 | Rucaparib | OCI-C5x (clear cell) | 2 | 39.8 (active) |
| RBL1 | SID405527235 | Rucaparib | OCI-C5x (clear cell) | 3 | 41.3 (active) |
| RBL1 | SID405527235 | Rucaparib | OCI-P5x (serous) | 1 | 23.2 (active) |
| RBL1 | SID405527235 | Rucaparib | OCI-P5x (serous) | 2 | 32.4 (active) |
| RBL1 | SID405527235 | Rucaparib | OCI-P5x (serous) | 3 | 38.5 (active) |
| RBL1 | SID405527235 | Vehicle | OCI-C5x (clear cell) | 1 | 50.7 (active) |
| RBL1 | SID405527235 | Vehicle | OCI-C5x (clear cell) | 2 | 35 (active) |
| RBL1 | SID405527235 | Vehicle | OCI-C5x (clear cell) | 3 | 45.2 (active) |
| RBL1 | SID405527235 | Vehicle | OCI-P5x (serous) | 1 | 51.1 (active) |
| RBL1 | SID405527235 | Vehicle | OCI-P5x (serous) | 2 | 55.9 (active) |
| RBL1 | SID405527235 | Vehicle | OCI-P5x (serous) | 3 | 78.9 (active) |
| CDK10 | SID405527412 | Rucaparib | OCI-C5x (clear cell) | 1 | 57 (active) |
| CDK10 | SID405527412 | Rucaparib | OCI-C5x (clear cell) | 2 | 63.9 (active) |
| CDK10 | SID405527412 | Rucaparib | OCI-C5x (clear cell) | 3 | 38.8 (active) |
| CDK10 | SID405527412 | Rucaparib | OCI-P5x (serous) | 1 | 108 |
| CDK10 | SID405527412 | Rucaparib | OCI-P5x (serous) | 2 | 101 |
| CDK10 | SID405527412 | Rucaparib | OCI-P5x (serous) | 3 | 96 |
| CDK10 | SID405527412 | Vehicle | OCI-C5x (clear cell) | 1 | 66.9 (active) |
| CDK10 | SID405527412 | Vehicle | OCI-C5x (clear cell) | 2 | 77.7 (active) |
| CDK10 | SID405527412 | Vehicle | OCI-C5x (clear cell) | 3 | 47.1 (active) |
| CDK10 | SID405527412 | Vehicle | OCI-P5x (serous) | 1 | 95.4 |
| CDK10 | SID405527412 | Vehicle | OCI-P5x (serous) | 2 | 90.6 |
| CDK10 | SID405527412 | Vehicle | OCI-P5x (serous) | 3 | 98.8 |
| DGKA | SID405527404 | Rucaparib | OCI-C5x (clear cell) | 1 | 42.6 (active) |
| DGKA | SID405527404 | Rucaparib | OCI-C5x (clear cell) | 2 | 42.3 (active) |
| DGKA | SID405527404 | Rucaparib | OCI-C5x (clear cell) | 3 | 37.7 (active) |
| DGKA | SID405527404 | Rucaparib | OCI-P5x (serous) | 1 | 96.6 |
| DGKA | SID405527404 | Rucaparib | OCI-P5x (serous) | 2 | 89.2 |
| DGKA | SID405527404 | Rucaparib | OCI-P5x (serous) | 3 | 88.1 |
| DGKA | SID405527404 | Vehicle | OCI-C5x (clear cell) | 1 | 69.8 (active) |
| DGKA | SID405527404 | Vehicle | OCI-C5x (clear cell) | 2 | 38.6 (active) |
| DGKA | SID405527404 | Vehicle | OCI-C5x (clear cell) | 3 | 51.3 (active) |
| DGKA | SID405527404 | Vehicle | OCI-P5x (serous) | 1 | 104 |
| DGKA | SID405527404 | Vehicle | OCI-P5x (serous) | 2 | 101 |
| DGKA | SID405527404 | Vehicle | OCI-P5x (serous) | 3 | 97.6 |
| STK16 | SID405527824 | Rucaparib | OCI-C5x (clear cell) | 1 | 67.8 (active) |
| STK16 | SID405527824 | Rucaparib | OCI-C5x (clear cell) | 2 | 61.1 (active) |
| STK16 | SID405527824 | Rucaparib | OCI-C5x (clear cell) | 3 | 73 (active) |
| STK16 | SID405527824 | Rucaparib | OCI-P5x (serous) | 1 | 70.7 (active) |
| STK16 | SID405527824 | Rucaparib | OCI-P5x (serous) | 2 | 54.7 (active) |
| STK16 | SID405527824 | Rucaparib | OCI-P5x (serous) | 3 | 57.6 (active) |
| STK16 | SID405527824 | Vehicle | OCI-C5x (clear cell) | 1 | 94.2 |
| STK16 | SID405527824 | Vehicle | OCI-C5x (clear cell) | 2 | 58.6 (active) |
| STK16 | SID405527824 | Vehicle | OCI-C5x (clear cell) | 3 | 52.1 (active) |
| STK16 | SID405527824 | Vehicle | OCI-P5x (serous) | 1 | 69.2 (active) |
| STK16 | SID405527824 | Vehicle | OCI-P5x (serous) | 2 | 80.3 |
| STK16 | SID405527824 | Vehicle | OCI-P5x (serous) | 3 | 34.2 (active) |

Looked up above.
Entry of STK16 [SID405527824], rucaparib or vehicle Vehicle, cell line OCI-C5x (clear cell), technical replicate 1 in “viability, normalised (%)”: 94.2
Entry of DGKA [SID405527404], rucaparib or vehicle Rucaparib, cell line OCI-P5x (serous), technical replicate 1 under “viability, normalised (%)”: 96.6
Under “viability, normalised (%)”, CDK10 [SID405527412], rucaparib or vehicle Rucaparib, cell line OCI-P5x (serous), technical replicate 1 has 108
Under “viability, normalised (%)”, RBL1 [SID405527235], rucaparib or vehicle Vehicle, cell line OCI-C5x (clear cell), technical replicate 1 reads 50.7 (active)
RBL1 [SID405527235], rucaparib or vehicle Vehicle, cell line OCI-P5x (serous), technical replicate 3, viability, normalised (%): 78.9 (active)
CDK10 [SID405527412], rucaparib or vehicle Vehicle, cell line OCI-C5x (clear cell), technical replicate 2, viability, normalised (%) → 77.7 (active)
